From article PMC10903463
Results are given in words; binding and its absence hold for the method and conditions named. In cells and extracts the contact can be indirect. A yes stands for co-enrichment or nearness to the bait. Other partners may have been found. Sequences can lack the tags named with a protein.

Protein sequences, listed by entry. Tags and fused reporters are not part of them. Lines headed by an entry give the natural chain unless they say otherwise; changes in a name come on top.
UniProt Q6GMN2: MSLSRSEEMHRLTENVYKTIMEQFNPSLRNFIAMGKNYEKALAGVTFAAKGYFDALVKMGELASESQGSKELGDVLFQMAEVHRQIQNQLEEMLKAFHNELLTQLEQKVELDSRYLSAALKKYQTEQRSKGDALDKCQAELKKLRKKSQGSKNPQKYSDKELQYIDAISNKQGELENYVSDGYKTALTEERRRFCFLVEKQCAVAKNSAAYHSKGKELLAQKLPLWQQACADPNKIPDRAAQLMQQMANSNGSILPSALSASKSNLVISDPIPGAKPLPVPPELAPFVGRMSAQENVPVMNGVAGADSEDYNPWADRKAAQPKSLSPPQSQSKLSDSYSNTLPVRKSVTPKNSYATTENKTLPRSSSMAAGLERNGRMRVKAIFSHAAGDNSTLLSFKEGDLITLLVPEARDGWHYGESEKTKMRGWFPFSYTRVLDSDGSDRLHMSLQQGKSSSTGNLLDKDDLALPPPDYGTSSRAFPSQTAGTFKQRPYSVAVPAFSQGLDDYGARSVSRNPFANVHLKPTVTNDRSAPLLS
UniProt D3ZDT1: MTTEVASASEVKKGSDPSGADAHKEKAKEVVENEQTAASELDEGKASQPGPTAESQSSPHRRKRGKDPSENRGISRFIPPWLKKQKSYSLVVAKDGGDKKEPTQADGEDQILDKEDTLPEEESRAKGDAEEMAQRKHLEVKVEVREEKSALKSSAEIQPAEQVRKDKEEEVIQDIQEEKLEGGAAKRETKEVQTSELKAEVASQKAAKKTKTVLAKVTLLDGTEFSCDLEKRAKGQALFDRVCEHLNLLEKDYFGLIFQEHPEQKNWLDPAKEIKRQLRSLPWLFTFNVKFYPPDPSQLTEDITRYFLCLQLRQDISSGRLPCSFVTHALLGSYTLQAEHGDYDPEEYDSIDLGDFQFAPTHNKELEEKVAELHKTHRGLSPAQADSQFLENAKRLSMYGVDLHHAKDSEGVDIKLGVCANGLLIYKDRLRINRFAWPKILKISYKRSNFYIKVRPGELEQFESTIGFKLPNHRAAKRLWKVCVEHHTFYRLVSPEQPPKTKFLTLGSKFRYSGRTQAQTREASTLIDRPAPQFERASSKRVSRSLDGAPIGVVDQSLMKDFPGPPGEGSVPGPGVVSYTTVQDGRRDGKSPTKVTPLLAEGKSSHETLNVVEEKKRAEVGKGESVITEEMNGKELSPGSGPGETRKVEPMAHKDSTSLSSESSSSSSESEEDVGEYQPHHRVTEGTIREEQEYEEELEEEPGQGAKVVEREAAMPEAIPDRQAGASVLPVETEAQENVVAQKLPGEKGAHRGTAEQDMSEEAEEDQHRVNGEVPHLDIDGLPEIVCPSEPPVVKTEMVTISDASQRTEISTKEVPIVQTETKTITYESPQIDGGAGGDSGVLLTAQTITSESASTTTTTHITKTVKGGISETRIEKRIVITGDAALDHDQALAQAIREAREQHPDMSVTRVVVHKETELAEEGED
UniProt O08874: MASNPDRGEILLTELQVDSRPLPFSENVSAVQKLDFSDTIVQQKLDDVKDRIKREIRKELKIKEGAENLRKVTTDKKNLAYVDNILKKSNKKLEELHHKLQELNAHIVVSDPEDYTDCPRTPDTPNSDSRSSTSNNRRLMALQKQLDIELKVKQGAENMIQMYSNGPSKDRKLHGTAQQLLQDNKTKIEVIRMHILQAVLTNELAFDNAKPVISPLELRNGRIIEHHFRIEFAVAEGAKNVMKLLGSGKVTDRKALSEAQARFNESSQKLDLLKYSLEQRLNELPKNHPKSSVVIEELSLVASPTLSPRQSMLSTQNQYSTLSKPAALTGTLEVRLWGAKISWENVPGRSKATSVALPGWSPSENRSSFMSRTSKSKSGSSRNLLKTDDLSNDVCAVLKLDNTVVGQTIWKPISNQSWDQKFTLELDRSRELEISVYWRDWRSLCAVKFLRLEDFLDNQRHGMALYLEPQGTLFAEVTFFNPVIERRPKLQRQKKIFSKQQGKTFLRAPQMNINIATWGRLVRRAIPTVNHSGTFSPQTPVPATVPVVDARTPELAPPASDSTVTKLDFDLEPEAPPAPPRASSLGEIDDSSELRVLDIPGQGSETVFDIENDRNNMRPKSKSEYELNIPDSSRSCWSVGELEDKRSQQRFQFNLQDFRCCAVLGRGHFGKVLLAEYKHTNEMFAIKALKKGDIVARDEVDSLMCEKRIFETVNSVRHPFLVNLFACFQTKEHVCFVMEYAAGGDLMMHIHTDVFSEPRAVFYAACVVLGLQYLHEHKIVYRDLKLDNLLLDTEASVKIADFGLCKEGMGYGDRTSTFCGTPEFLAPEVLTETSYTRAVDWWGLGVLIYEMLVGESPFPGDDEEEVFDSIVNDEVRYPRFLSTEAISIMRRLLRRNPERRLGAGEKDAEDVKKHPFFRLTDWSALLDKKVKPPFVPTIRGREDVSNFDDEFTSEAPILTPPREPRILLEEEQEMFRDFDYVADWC
UniProt B5DFG5: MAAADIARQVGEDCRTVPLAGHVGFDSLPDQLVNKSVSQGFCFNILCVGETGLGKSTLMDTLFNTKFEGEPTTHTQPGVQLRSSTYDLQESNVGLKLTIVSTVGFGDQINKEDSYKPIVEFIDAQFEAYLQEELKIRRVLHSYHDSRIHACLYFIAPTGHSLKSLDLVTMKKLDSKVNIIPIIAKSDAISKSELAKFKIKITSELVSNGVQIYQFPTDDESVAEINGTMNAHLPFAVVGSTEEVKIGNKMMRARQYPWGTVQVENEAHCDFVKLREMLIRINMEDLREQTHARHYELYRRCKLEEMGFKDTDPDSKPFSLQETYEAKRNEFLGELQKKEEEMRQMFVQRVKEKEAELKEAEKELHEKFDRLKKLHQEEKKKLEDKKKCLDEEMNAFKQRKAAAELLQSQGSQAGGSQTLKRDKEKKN
UniProt B0BNF1: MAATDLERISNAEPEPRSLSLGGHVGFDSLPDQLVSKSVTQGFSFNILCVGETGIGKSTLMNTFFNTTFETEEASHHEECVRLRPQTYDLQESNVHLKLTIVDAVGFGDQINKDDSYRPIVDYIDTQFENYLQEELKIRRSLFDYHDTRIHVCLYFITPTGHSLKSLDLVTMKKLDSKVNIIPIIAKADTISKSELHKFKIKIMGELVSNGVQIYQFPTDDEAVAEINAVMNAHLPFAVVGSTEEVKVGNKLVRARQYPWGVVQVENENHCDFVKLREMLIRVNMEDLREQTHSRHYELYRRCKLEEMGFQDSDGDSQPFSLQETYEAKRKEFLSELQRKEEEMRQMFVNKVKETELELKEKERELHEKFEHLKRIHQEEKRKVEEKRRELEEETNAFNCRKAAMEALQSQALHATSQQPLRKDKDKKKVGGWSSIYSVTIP
UniProt Q9QZR6: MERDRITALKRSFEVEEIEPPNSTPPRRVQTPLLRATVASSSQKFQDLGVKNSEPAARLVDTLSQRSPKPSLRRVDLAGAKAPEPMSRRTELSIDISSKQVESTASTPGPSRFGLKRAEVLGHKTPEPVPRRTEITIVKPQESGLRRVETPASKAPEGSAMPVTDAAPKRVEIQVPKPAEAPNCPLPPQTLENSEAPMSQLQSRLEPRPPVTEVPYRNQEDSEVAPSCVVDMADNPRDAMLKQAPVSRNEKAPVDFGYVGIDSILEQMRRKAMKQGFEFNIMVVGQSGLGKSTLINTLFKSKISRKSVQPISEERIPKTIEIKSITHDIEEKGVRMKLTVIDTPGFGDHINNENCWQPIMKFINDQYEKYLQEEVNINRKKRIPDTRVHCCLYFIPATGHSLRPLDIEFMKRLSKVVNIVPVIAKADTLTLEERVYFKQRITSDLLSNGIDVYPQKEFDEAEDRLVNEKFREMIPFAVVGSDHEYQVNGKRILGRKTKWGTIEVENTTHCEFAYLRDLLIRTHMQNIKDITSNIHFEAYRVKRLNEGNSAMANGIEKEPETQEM
UniProt Q5U211: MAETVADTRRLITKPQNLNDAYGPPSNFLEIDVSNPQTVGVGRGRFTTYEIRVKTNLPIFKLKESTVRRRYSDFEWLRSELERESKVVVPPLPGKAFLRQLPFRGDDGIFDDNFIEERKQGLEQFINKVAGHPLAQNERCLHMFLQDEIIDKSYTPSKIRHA
UniProt G3V6S0: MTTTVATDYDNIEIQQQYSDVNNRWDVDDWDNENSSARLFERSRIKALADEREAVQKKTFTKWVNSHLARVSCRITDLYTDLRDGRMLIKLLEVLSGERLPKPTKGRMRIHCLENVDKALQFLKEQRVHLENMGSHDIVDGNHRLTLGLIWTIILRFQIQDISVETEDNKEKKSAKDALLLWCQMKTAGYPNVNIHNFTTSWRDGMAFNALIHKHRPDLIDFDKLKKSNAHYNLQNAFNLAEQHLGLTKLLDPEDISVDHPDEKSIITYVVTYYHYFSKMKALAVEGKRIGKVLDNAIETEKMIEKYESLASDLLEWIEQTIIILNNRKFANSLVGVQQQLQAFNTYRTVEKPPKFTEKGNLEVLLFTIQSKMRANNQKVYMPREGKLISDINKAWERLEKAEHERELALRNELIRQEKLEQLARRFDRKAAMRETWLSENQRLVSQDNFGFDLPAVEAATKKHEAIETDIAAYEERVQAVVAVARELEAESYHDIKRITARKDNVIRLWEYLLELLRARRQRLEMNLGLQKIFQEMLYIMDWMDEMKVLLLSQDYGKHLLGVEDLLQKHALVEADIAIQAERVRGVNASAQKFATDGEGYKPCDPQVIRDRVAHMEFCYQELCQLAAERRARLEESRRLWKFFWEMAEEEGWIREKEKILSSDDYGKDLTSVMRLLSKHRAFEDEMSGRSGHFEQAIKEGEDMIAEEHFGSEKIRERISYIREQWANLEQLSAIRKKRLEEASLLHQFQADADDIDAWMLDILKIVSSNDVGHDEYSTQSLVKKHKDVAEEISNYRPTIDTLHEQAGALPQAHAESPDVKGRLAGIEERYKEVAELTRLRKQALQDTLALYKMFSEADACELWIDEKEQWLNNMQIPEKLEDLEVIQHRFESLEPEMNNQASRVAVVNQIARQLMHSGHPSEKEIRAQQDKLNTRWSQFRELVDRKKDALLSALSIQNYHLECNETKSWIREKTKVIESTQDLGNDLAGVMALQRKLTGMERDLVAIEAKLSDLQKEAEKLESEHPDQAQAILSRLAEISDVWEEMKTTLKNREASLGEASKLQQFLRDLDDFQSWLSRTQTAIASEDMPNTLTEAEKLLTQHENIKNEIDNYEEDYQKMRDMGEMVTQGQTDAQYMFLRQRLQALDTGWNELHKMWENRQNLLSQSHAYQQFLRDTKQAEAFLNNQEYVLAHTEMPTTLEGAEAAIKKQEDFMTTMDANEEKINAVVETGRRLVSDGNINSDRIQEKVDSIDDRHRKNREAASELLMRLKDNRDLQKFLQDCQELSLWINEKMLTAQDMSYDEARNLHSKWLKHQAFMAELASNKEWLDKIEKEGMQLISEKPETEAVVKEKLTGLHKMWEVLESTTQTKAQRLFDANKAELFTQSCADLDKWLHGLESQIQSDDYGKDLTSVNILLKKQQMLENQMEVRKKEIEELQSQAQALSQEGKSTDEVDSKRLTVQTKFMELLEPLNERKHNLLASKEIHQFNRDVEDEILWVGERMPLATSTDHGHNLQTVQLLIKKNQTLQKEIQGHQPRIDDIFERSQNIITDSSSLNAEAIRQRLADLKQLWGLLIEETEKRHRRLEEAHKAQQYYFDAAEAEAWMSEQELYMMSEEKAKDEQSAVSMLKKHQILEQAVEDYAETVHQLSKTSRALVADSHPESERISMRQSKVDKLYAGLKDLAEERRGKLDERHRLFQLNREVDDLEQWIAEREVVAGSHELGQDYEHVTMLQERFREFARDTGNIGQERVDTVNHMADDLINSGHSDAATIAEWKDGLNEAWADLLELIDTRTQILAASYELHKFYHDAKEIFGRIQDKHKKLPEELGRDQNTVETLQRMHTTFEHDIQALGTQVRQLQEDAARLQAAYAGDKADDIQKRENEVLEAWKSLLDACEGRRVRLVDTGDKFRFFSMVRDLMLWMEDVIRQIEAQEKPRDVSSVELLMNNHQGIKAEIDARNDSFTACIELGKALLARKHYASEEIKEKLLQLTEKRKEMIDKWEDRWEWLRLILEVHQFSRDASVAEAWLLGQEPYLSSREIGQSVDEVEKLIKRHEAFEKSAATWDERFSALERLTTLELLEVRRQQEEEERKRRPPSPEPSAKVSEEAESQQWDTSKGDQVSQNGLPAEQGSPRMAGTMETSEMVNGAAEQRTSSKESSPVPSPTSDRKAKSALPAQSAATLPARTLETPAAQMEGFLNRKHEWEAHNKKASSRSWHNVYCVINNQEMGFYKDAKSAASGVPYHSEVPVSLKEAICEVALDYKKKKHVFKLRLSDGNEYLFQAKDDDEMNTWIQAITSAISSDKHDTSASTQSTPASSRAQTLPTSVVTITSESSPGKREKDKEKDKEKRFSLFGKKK

T1: WT CSP-V5-miniTurbo (human) (UniProt Q9H3Z4)
T1 sequence: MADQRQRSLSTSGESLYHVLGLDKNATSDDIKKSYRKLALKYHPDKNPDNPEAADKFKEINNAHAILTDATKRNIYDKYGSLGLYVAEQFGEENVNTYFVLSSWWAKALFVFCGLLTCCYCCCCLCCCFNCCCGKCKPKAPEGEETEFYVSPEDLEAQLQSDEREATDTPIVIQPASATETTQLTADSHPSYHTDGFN

B1: Basp1 (protein, UniProt Q05175 1-220)
chain: MGSKLSKKKKGYNVNDEKAKDKDKKAEGAGTEEEGTQKESEPQAAADATEVKESAEEKPKDAADGEAKAEEKEADKAAAKEEAPKAEPEKSEGAAEEQPEPAPAPEQEAAAPGPAAGGEAPKAGEASAESTGAADGAPQEEGEAKKTEAPAAGPEAKSDAAPAASDSKPSTEPAPSSKETPAASEAPSSAAKAPAPAAPAAEPQAEAPVASSEQSVAVKE
B2: SNAP-29 (protein, UniProt Q9Z2P6 1-257)
chain: MSGYPKSYNPFDDDVEDEDTRPAPWKDARDLPDGPDPPIDRQQYLRQEVLRGPSATAASTSRSLFLMYESEKIGVASSEELVRQRGVLEHTEKMVDKMDQDLKMSQKHINSIKSVFGGFINYFKSKPVEPPPEQNGSIVPQPSSRLKEAINTSKDQESKYQASHPNLRRLHDAELDSVPASTVNTEVYPKNSSLRAYHQKIDSNLDELSVGLGRLKDIALGMQTEIEEQDDILDRLTTKVDKLDVNIKSTEKKVRQL
B3: Add1 (protein, UniProt Q63028 1-735)
chain: MNGDTRAAVVTSPPPTTAPHKERYFDRVDENNPEYLRERNMAPDLRQDFNMMEQKKRVSMILQSPAFCEELESMIQEQFKKGKNPTGLLALQQIADFMTASVPNVYPAAPQGGMAALNMSLGMVTPVNDLRGSDSIAYDKGEKLLRCKLAAFYRLADLFGWSQLIYNHITTRVNSEQEHFLIVPFGLLYSEVTASSLVKVNLQGDIVDRGSTNLGVNQAGFTLHSAIYAARPDAKCIVHIHTPAGAAVSAMKCGLLPISPEALSLGEVAYHDYHGILVDEEEKILIQKNLGPKSKVLILRNHGLVSVGESVEEAFYYIHNLVVACEIQVRTLASAGGPDNLVLLDPGKYKAKSRSPGTPAGEGSGSPPKWQIGEQEFEALMRMLDNLGYRTGYPYRYPALRERSKKYSDVEVPASVTGHSFASDGDSGTCSPLRHSFQKQQREKTRWLNSGRGDDASEEGQNGSSPKSKTKWTKEDGHRTSTSAVPNLFVPLNTNPKEVQEMRNKIREQNLQDIKTAGPQSQVLCGVMMDRSLVQGELVTASKAIIEKEYQPHVIVSTTGPNPFNTLTDRELEEYRREVERKQKGSEENLDETREQKEKSPPDQSAVPNTPPSTPVKLEGGLPQEPTSRDGSDATTSKPTPPDLSPDEPSEALAFPTVAEEAHASPDTTQPLAEADPEPASASAPGAEEVASPATEEGSPMDPGSDGSPGKSPSKKKKKFRTPSFLKKSKKKSDS
B4: Slc9a3r1 (protein, UniProt Q9JJ19 1-356)
chain: MSADAAAGEPLPRLCCLEKGPNGYGFHLHGEKGKVGQFIRLVEPGSPAEKSGLLAGDRLVEVNGENVEKETHQQVVSRIRAALNAVRLLVVDPETDEQLKKLGVPIREELLRAQEKSEHTEPPAAADTKKAGDQNEAEKSHLERCELRPRLCTMKKGPNGYGFNLHSDKSKPGQFIRAVDPDSPAEASGLRAQDRIVEVNGVCMEGKQHGDVVSAIKAGGDEAKLLVVDKETDEFFKKCRVTPSQEHLDGPLPEPFSNGEIQKENSREALVEPASESPRPALARSASSDTSEELNAQDSPKRHDSTEPSSTSSSSDPILDFNISLAVAKERAHQKRSSKRAPQMDWSKKNELFSNL
B5: Esyt2 (protein, UniProt D3ZJ32 1-845)
chain: MSSAGGEGPEAGTGRAGGRSEPEAPGSALSVDLPGLLGQLARSFALLLPVYALGYLGLSFSWVLLALGLLAWCRRSRGLKASRLCRALALLEDEEQAVRLGVRACDLPAWVHFPDTERAEWLNKTVKHMWPFICQFIEKLFRETIEPAVRGANAHLSTFSFTKVDVGHQPLRVNGVKVYTENVDKRQIILDLQISFVGNCEIDLEIKRYFCRAGVKSIQIHGTMRVILEPLIGDMPLVGALSIFFLRKPLLEINWTGLTNLLDIPGLNGLSDTIILDIISNYLVLPNRITVPLVSEVQIAQLRFPIPKGVLRIHFIEAQDLQGKDTYLKGLVKGKSDPYGIIRVGNQIFQSKVVKENLSPKWNEVYEALVYEHPGQELEIELFDEDPDKDDFLGSLMIDLIEVEKERLLDEWFTLDEVPKGKLHLKLEWLTLMPDAANLDKVLADIRADKDQANDGLSSALLILYLDSARNLPSGKKINSNPNPLVQMSVGHKAQESKIRYKTSEPVWEENFTFFIHNPKRQDLEVEVKDEQHQCSLGSLRIPLSQLLASDNMTINQRFQLSNSGPNSTLKMKIALRVLHLEKQERPPDYQHSAQVKRPSVSKEGRKMPIKSQMSASPGTGGTNTAPSTPVMGVDDKPAMEEKPQPPEASPLGQRDLGRSSSSLLASPSHIAAKEPTPSIASDISLPIATQELRQRLRQLENGTTLGQSPLGQIQLTIRHSSQRNKLIVVVHSCRNLIAFSEDGSDPYVRMYLLPDKRRSGRRKTHVSKKTLNPVFDQSFDFSVSLPEVQRRTLDVAVKNSGGFLSKDKGLLGKVLVALASEELAKGWTQWYDLTEDGTRPQVIT
B6: Ctnnd1 (protein, UniProt D3ZZZ9 1-917)
chain: MDDSEVESTASILASVKEQEAQFEKLTRALEEERRHVSAQLERVRVSPQDANSLMANGTLTRRHQNGRFVGDADLERQKFSDLKLNGPQDHNHLLYSTIPRMQEPGQIVETYTEEDPEGAMSVVSVETSDDGTTRRTETTVKKVVKTMTTRTVQPVPMGPDGLPVDASAVSNNYIQTLGRDFRKNGNGGPGPYVGQAGTATLPRNFHYPPDGYGRHYEDGYPGGSDNYGSLSRVTRIEERYRPSMEGYRAPSRQDVYGPQPQVRVGGSSVDLHRFHPEPYGLEDDQRSMGYDDLDYGMMSDYGTARRTGTPSDPRRRLRSYEDMIGEEVPPDQYYWAPLAQHERGSLASLDSLRKGMPPPPNWRQPELPEVIAMLGFRLDAVKSNAAAYLQHLCYRNDKVKTDVRKLKGIPILVGLLDHPKKEVHLGACGALKNISFGRDQDNKIAIKNCDGVPALVRLLRKARDMDLTEVITGTLWNLSSHDSIKMEIVDHALHALTDEVIIPHSGWEREPNEDCKPRHIEWESVLTNTAGCLRNVSSERSEARRKLRECDGLVDALIFIVQAEIGQKDSDSKLVENCVCLLRNLSYQVHREIPQAERYQEALPSVANSTGPHAASCFGAKKGKDEWFSRGKKPTEDPANDTVDFPKRTSPARGYELLFQPEVVRIYISLLKESKTPAILEASAGAIQNLCAGRWTYGRYIRSALRQEKALSAIADLLTSEHERVVKAASGALRNLAVDARNKELIGKHAIPNLVKNLPGGQQNSSWNFSEDTVVSILNTINEVIAENLEAAKKLRETQGIEKLVLINKSGNRSEKEVRAAALVLQTIWGYKELRKPLEKEGWKKSDFQVNLNNASRSQSSHSYDDSTLPLIDRNQKSDNNYSTLNERGDHNRTLDRSGDLGDMEPLKGAPLMQKI
B7: Ctnna1 (protein, UniProt Q5U302 1-922)
chain: MVTADWTERRSKKEMTAVHTGNINFKWDPKSLEIRTLAVERLLEPLVTQVTTLVNTNSKGPSNKKRGRSKKAHVLAASVEQATENFLEKGDKIAKESQFLKEELVAAVDDVRKQGDLMKSAAGEFADDPCSSVKRGNMVRAARALLSAVTRLLILADMADVYKLLVQLKVVEDGILKLRNAGNEQDLGIQYRALKPEVDKLNIMAAKRQQELKDVGHRDQMAAARGILQKNVPILYTASQACLQHPDVAAYKANRDLIYKQLQQAVTGISNAAQATASDDASQQQGGGGGGGELAYALNNFDKQIIVDPLSFSEERFRPSLEERLESIISGAALMADSSCTRDDRRERIVAECNAVRQALQDLLSEYMGNAGRKERSDALNSAIDKMTKKTRDLRRQLRKAVMDHVSDSFLETNVPLLVLIEAAKNGNEKEVKEYAQVFREHANKLIEVANLACSISNNEEGVKLVRMSASQLEALCPQVINAALALAAKPQSKLAQENMDLFKEQWEKQVRVLTDAVDDITSIDDFLAVSENHILEDVNKCVIALQEKDVDGLDRTAGAIRGRAARVIHVVTSEMDNYEPGVYTEKVLEATKLLSNTVMPRFTEQVEAAVEALSSDPAQPMDENEFIDASRLVYDGIRDIRKAVLMIRTPEELDDSDFETEDFDVRSRTSVQTEDDQLIAGQSARAIMAQLPQEQKAKIAEQVASFQEEKSKLDAEVSKWDDSGNDIIVLAKQMCMIMMEMTDFTRGKGPLKNTSDVISAAKKIAEAGSRMDKLGRTIADHCPDSACKQDLLAYLQRIALYCHQLNICSKVKAEVQNLGGELVVSGVDSAMSLIQAAKNLMNAVVQTVKASYVASTKYQKSQGMASLNLPAVSWKMKAPEKKPLVKREKQDETQTKIKRASQKKHVNPVQALSEFKAMDSI
B8: ykt6 (protein, UniProt Q5EGY4 1-198)
chain: MKLYSLSVFYKGEPKAVLLKAAYDVSSFSFFQRSSVQEFMTFTSQLIVERSAKGSRASVKEQEYLCHVYVRSDSLAGVVIADSEYPSRVAFTLLEKVLDEFSKQVDRIDWPVGSPATIHYTALDGHLSRYQNPREADPMSKVQAELDETKIILHNTMESLLERGEKLDDLVSKSEVLGTQSKAFYKTARKQNSCCAIM
B9: Nudcd2 (protein, UniProt Q5M823 1-157)
chain: MSAPFEERSGVVPCATPWGQWYQTLEEVFIEVQVPPGTRAQDIQCGLQSRHVALAVGGREILKGKLFDSTIADEGTWTLEDRKMVRIVLTKTKRDAANCWTSLLESEYAADPWVQDQMQRKLTLERFQKENPGFDFSGAEISGNYTKGGPDFSNLEK

Target: T1, WT CSP-V5-miniTurbo (human)
Assay: proximity labelling; BioID in living PC12 cells stably expressing WT or L115R CSP-V5-miniTurbo; 100 μM biotin overnight; RIPA lysis, streptavidin beads, on-bead tryptic digestion, LC-MS with label-free quantification, three biological repeats; compared with miniTurbo control and no biotin control

binding, binds:
Atp2b4 (from UniProt Q64542-4 1-1191), Baiap2 (from UniProt Q6GMN2 1-535), Clk2 (from UniProt Q5XI98), Dnajb1 (from UniProt B0K030 1-340), Epb41l2 (from UniProt D3ZDT1 1-926), Gnas (from UniProt Q63803 1-1144), Pcdh1 (rat (endogenous in PC12)), Pkn2 (from UniProt O08874 1-985), Sept6 (from UniProt B5DFG5), Sept8 (from UniProt B0BNF1), Sept9 (from UniProt Q9QZR6), Snx3 (from UniProt Q5U211 1-162), Sptbn1 (from UniProt G3V6S0 1-2363), Trpv2 (from UniProt Q9WUD2 1-761), Yes1 (from UniProt F1LM93 1-541), B1, B2, B3, B4, B5, B6, B7, B8, B9
